Experimental data: PubChem BioAssay AID504791 (Drosophila RNAi Screening Center, 2011)

- Screen: 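Genes of the fly required for silencing by miRNA, siRNA or endo-siRNA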 (primary screen)
- Cells: Drosophila S2-derived reporter cells
- Knock-down reagent: long dsRNA against Drosophila genes, about 150-250 ng dsRNA per well (siRNA assay); about 80-120 ng (miRNA assay)
- Time to read-out: about 5 days (siRNA assay); about 4 days (miRNA assay)
- Challenge: copper sulfate induction of reporters: 25 µM (siRNA assay); 200 mM stated (miRNA assay), 1-2 days before reading
- Detection: 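Dual luciferase assay: Renilla to firefly signal ratio in each well, scaled to the mean ratio of its plate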
- Scale: siRNA reporter hit score: higher = 3 marks a strong hit with raised ratio; -3 a strong hit with lowered ratio
- Active means: 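First-pass picks had plate-scaled ratios over 1.5 for the siRNA assay, over 1.6 for the miRNA assay, or under 0.6; two distinct dsRNAs had to score alike on retest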
The deposit covers about 23,000 reagents; this is a random part of those with a known target gene and a result. In the full data, 199 (0.86%) were called active. 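Plate-scaled ratios behind the calls are not deposited; printed light signals are raw; many rows marked increased or decreased are still called inactive.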

no.	gene	DRSC id	siRNA reporter hit score	stable siRNA reporter change	miRNA reporter change	stable assay Renilla, run 1 (luminescence)	stable assay firefly, run 1 (luminescence)	Call
1	CG31301 (GeneID 41865)	DRSC22164				9317	5.27e5	inactive
2	CG31705 (GeneID 34577)	DRSC01991				5272	4.12e5	inactive
3	CG7182 (GeneID 38944)	DRSC10780				8243	6.76e5	inactive
4	CG5781 (GeneID 34678)	DRSC02893				8131	4.67e5	inactive
5	RacGAP84C (GeneID 117503)	DRSC12630				7440	4.22e5	inactive
6	CG15739 (GeneID 32146)	DRSC19705				5839	5.21e5	inactive
7	CG31121 (GeneID 42975)	DRSC15361				7817	3.67e5	inactive
8	CG31121 (GeneID 42975)	DRSC15363				6266	3.55e5	inactive
9	CG15522 (GeneID 43546)	DRSC15059				7130	4.15e5	inactive
10	CG31802 (GeneID 318949)	DRSC02459				7654	4.72e5	inactive
11	fd59A (GeneID 37631)	DRSC04685				32964	3.21e5	inactive
12	nolo (GeneID 35424)	DRSC03705				15690	1.33e6	inactive
13	nolo (GeneID 35424)	DRSC03719				6792	4.34e5	inactive
14	nolo (GeneID 35424)	DRSC03720				7652	5.76e5	inactive
15	CG4115 (GeneID 41499)	DRSC15545				6032	3.93e5	inactive
16	side-VII (GeneID 41184)	DRSC14578				8231	3.74e5	inactive
17	Trm7-34 (GeneID 42508)	DRSC16171				6583	3.58e5	inactive
18	CycA (GeneID 39340)	DRSC09132				3011	3.28e5	inactive
19	CycA (GeneID 39340)	DRSC11123				5691	2.89e5	inactive
20	CG16852 (GeneID 34769)	DRSC01876				7143	3.23e5	inactive
21	CG13442 (GeneID 37349)	DRSC06402				6662	5.37e5	inactive
22	scf (GeneID 38145)	DRSC08735				6963	4.01e5	inactive
23	CG8006 (GeneID 38920)	DRSC10949				7802	5.17e5	inactive
24	CG9519 (GeneID 32415)	DRSC20195				10390	5.63e5	inactive
25	nAChRbeta3 (GeneID 33228)	DRSC00325				10484	2.51e5	inactive
26	Nlg3 (GeneID 40912)	DRSC12477				4319	3.49e5	inactive
27	Nlg3 (GeneID 40912)	DRSC12524				5974	4.20e5	inactive
28	Nlg3 (GeneID 40912)	DRSC12540				7262	3.51e5	inactive
29	Nlg3 (GeneID 40912)	DRSC12574				8565	4.85e5	inactive
30	hbt (GeneID 34738)	DRSC02503				6595	3.76e5	inactive
31	hbt (GeneID 34738)	DRSC23270				2839	2.24e5	inactive
32	E(var)3-9 (GeneID 41073)	DRSC14451				6786	3.93e5	inactive
33	E(var)3-9 (GeneID 41073)	DRSC23242				4936	3.36e5	inactive
34	CG12480 (GeneID 32359)	DRSC19460				5628	6.12e5	inactive
35	CG32554 (GeneID 32767)	DRSC22713				3936	3.80e5	inactive
36	Jon99Ciii (GeneID 43543)	DRSC16859				6707	3.38e5	inactive
37	eEF1alpha2 (GeneID 43736)	DRSC14079				7788	3.53e5	inactive
38	eEF1alpha2 (GeneID 43736)	DRSC16658				6248	4.55e5	inactive
39	apolpp (GeneID 43827)	DRSC17216				6264	3.07e5	inactive
40	CG15580 (GeneID 40743)	DRSC12266				6650	3.54e5	inactive
41	Vml (GeneID 5740271)	DRSC17695				7571	3.14e5	inactive
42	Vml (GeneID 5740271)	DRSC18529				7319	4.62e5	inactive
43	Gr22b (GeneID 117492)	DRSC20911				5203	4.53e5	inactive
44	Naa35 (GeneID 37866)	DRSC04447				1.62e5	1.25e6	inactive
45	CG10333 (GeneID 35112)	DRSC02036				21943	1.34e6	inactive
46	CG5567 (GeneID 39986)	DRSC10517				8552	3.03e5	inactive
47	CG11362 (GeneID 37574)	DRSC04106				5738	3.78e5	inactive
48	CG11362 (GeneID 37574)	DRSC22032				9320	5.85e5	inactive
49	CG30431 (GeneID 35549)	DRSC04902				2.53e5	1.48e6	inactive
50	CG30431 (GeneID 35549)	DRSC04904				6735	3.62e5	inactive
51	CG44838 (GeneID 39099)	DRSC10330		reporter ratio raised past the hit cutoff		5347	1.78e5	inactive
52	CG44838 (GeneID 39099)	DRSC10371				8574	3.70e5	inactive
53	kl-2 (GeneID 3355181)	DRSC21136				5382	3.13e5	inactive
54	sgll (GeneID 40925)	DRSC15442				7627	4.87e5	inactive
55	CG34247 (GeneID 5740480)	DRSC09933				6834	3.72e5	inactive
56	ScsbetaG (GeneID 44001)	DRSC11294				6387	3.68e5	inactive
57	RpS28b (GeneID 31897)	DRSC18258			reporter ratio lowered past the hit cutoff	7259	4.38e5	active
58	Not10 (GeneID 41552)	DRSC14129				7187	3.69e5	inactive
59	Inx3 (GeneID 44266)	DRSC14857				9542	4.91e5	inactive
60	CG30286 (GeneID 246529)	DRSC04070				6743	4.42e5	inactive
61	Ddr (GeneID 3346209)	DRSC00922				5063	3.40e5	inactive
62	Ddr (GeneID 3346209)	DRSC00923				4876	3.36e5	inactive
63	Ddr (GeneID 3346209)	DRSC02150				8390	5.00e5	inactive
64	Ddr (GeneID 3346209)	DRSC03229				6222	6.79e5	inactive
65	Ddr (GeneID 3346209)	DRSC03230				7084	5.90e5	inactive
66	Ddr (GeneID 3346209)	DRSC22818				3700	3.30e5	inactive
67	bwa (GeneID 250736)	DRSC01749				6279	4.86e5	inactive
68	bwa (GeneID 250736)	DRSC02310				6027	4.24e5	inactive
69	Fak (GeneID 37233)	DRSC07426				6155	3.39e5	inactive
70	CG12672 (GeneID 32781)	DRSC19482	3			5654	4.09e5	inactive
71	CG5281 (GeneID 41375)	DRSC15761				7159	3.66e5	inactive
72	Drak (GeneID 32097)	DRSC19778				4963	3.06e5	inactive
73	Drak (GeneID 32097)	DRSC23298				3935	3.11e5	inactive
74	CG11550 (GeneID 43731)	DRSC14326				6548	3.89e5	inactive
75	CG31549 (GeneID 40689)	DRSC21688				8777	3.85e5	inactive
76	CG6660 (GeneID 42708)	DRSC16087				6608	3.76e5	inactive
77	Prx3 (GeneID 42109)	DRSC15883				6520	2.81e5	inactive
78	cnc (GeneID 42743)	DRSC14676				7191	3.12e5	inactive
79	cnc (GeneID 42743)	DRSC15289				10376	3.07e5	inactive
80	cnc (GeneID 42743)	DRSC15600				8011	3.36e5	inactive
81	cnc (GeneID 42743)	DRSC15601				8191	2.82e5	inactive
82	Or67c (GeneID 39189)	DRSC11242				6552	4.38e5	inactive
83	ergic53 (GeneID 44679)	DRSC11389				7512	4.60e5	inactive
84	CG15296 (GeneID 31986)	DRSC17983				5407	4.30e5	inactive
85	Alp10 (GeneID 38632)	DRSC09749				5810	2.99e5	inactive
86	yps (GeneID 39377)	DRSC11411				4943	2.84e5	inactive
87	CG6277 (GeneID 43251)	DRSC16008				6916	4.11e5	inactive
88	CG13895 (GeneID 38087)	DRSC08365				5474	2.94e5	inactive
89	Uba5 (GeneID 32094)	DRSC19775				5068	4.41e5	inactive
90	Dh44-R2 (GeneID 36368)	DRSC06141				4944	3.00e5	inactive
91	Dh44-R2 (GeneID 36368)	DRSC06281				5632	3.07e5	inactive
92	Alp11 (GeneID 32496)	DRSC20080				6600	5.03e5	inactive
93	COX5B (GeneID 33918)	DRSC02115				6906	5.88e5	inactive
94	Obp99c (GeneID 43494)	DRSC16262				4934	3.92e5	inactive
95	Nplp2 (GeneID 50286)	DRSC09824				5356	2.90e5	inactive
96	CG14151 (GeneID 39201)	DRSC10153				9415	7.77e5	inactive
97	Tsp42Ee (GeneID 35614)	DRSC05947				7202	4.86e5	inactive
98	lncRNA:CR32553 (GeneID 318087)	DRSC19229				5723	4.48e5	inactive
99	ubl (GeneID 35592)	DRSC04998				7706	4.74e5	inactive
100	CG13868 (GeneID 37302)	DRSC06427				9817	3.23e5	inactive
101	CG32437 (GeneID 40366)	DRSC11760				6560	3.92e5	inactive
102	CG32437 (GeneID 40366)	DRSC22020				8860	4.99e5	inactive
103	CG4617 (GeneID 31657)	DRSC18377				7521	3.92e5	inactive
104	Muc26B (GeneID 50424)	DRSC02322				6718	4.32e5	inactive
105	Ir7a (GeneID 31686)	DRSC17866				6219	3.29e5	inactive
106	CG5265 (GeneID 42074)	DRSC15756				6742	3.16e5	inactive
